# In PubChem BioAssay (NCATS):
# Sequences of proteins named here, by UniProt entry; tags and fusion partners are left off.
# UniProt P36969, whole entry, looked up: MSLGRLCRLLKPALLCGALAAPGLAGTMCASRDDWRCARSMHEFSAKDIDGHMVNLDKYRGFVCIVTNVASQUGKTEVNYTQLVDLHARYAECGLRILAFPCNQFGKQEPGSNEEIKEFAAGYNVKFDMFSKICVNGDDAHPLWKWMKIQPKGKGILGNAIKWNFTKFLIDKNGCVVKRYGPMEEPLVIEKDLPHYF
# UniProt P05177, whole entry, looked up: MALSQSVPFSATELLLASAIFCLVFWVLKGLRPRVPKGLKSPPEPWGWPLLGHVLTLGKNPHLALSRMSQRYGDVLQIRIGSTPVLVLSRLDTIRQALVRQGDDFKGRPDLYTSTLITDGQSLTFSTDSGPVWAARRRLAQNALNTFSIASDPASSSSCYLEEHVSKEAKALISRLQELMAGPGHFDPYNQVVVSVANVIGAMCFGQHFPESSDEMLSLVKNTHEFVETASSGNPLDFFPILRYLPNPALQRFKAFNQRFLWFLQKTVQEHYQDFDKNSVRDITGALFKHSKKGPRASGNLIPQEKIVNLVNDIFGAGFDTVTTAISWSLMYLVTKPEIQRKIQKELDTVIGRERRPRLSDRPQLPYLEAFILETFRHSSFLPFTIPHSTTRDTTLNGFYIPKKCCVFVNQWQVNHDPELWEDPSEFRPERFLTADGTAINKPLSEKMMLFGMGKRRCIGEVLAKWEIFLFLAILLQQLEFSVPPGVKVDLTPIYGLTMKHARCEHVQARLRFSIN
# Values joined by “and” are separate entries in the source; they are usually repeats but may differ in a detail not shown here. Equal values may be shown once. Inconclusive means that the source gave no clear call. Such entries were picked first, then a sample of the others. A call without a number means that no potency is given here. For some assays here: Where the call is inconclusive, the potency comes from a doubtful curve fit. Active and inactive are the calls of the source. Unless noted, calls follow the shape of the dose curve; as a rule, active = well fitted curve in the direction sought with a large enough effect; inconclusive = small, poorly fitted or top-dose-only effect, or another doubt; inactive = no such curve, though single readings can be large; an effect the other way counts as inactive or inconclusive.
# What was measured:
# [1] = qHTS assay to identify small molecules that stimulate interleukin-8 (IL-8) secretion (AID 651758; active = well fitted activation curve with a large enough effect in the signal ratio; inconclusive = small, poorly fitted or top-dose-only effect, or effect the other way, or a change in a side signal; the % refers to the signal ratio); settings: HTRF ratio (665/615); activation: at 92.2 µM (top of the series)
# In short: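 THP-1, 2000 cells/well; cpd 16 h, 37 C; add cryptate + XL665 anti-IL-8 Abs; RT 1-3 h; TR-FRET read.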
# [2] = qHTS of pediatric cancer cell lines to identify multiple opportunities for drug repurposing: Primary screen for TC32 cells (AID 1347089); also: nearly all actives have a fitted effect of over 60% in size
# In short: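 Luminescent ATP read-out (CellTiter-Glo) of metabolically active TC32 cells after 48 h exposure. Concentration-response curves came from 11-point (MIPE, 0.78 nM–46 µM) or 8-point (NPC, 0.59 nM–46 µM) primary titrations; follow-up used 11 points.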
# CP262 = assay: qHTS profiling for inhibitors of Plasmodium falciparum proliferation (AID 504749); also: nearly all actives have a fitted effect of over 60% in size; settings: P. falciparum in erythrocytes, SYBR Green DNA, 72 h; series mostly up to 28.7 µM
# In short: (§1)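 P. falciparum-infected erythrocytes (0.3% parasitemia, 2.5% hematocrit final) were exposed to compounds for 72 h at 37 C in 5% CO2, then lysed with SYBR Green buffer overnight at room temperature; parasite DNA fluorescence was normalized to artemisinin and DMSO controls.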
# PC49 = assay: as above; settings: P. falciparum in erythrocytes, SYBR Green DNA, 72 h; series mostly up to 28.7 µM
# In short: as §1
# [3] = qHTS Assay for Identification of Small Molecule Agonists for Thrombopoietin (TPO) Signaling Pathway (AID 917)
# In short: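 Reporter: GpIIb promoter–luciferase in murine Ba/F3 expressing human TPO receptor. Pre-starved of IL-3 overnight; compounds with 26 pM TPO, 24 hrs, 37 C/5% CO2; luminescence read.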
# [4] = molecular target: Peroxisome proliferator-activated receptor gamma (Homo sapiens) (UniProt P37231); assay: qHTS assay for small molecule antagonists of peroxisome proliferator-activated receptor gamma signaling (AID 588537; active = well fitted inhibition curve with a large enough effect in the signal ratio, with a control signal flat, not every such curve was filed as active; inconclusive = small, poorly fitted or top-dose-only effect, or effect the other way, or a change in a side signal; the % refers to the signal ratio;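 also: reporter cells co-stimulated with 50 nM rosiglitazone agonist during compound treatment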); settings: HEK293 PPARg-UAS-bla, beta-lactamase ratio, antagonist mode; activity, negative = inhibition: at 76.8 µM (top of the series)
# In short: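 PPAR-gamma-UAS-bla HEK293 cells (3000/well, 1% charcoal/dextran-stripped FBS) were preincubated 6-6.5 h at 37 C, given titrated compounds, then stimulated with 50 nM rosiglitazone for 16 h. Beta-lactamase activity was read with CCF4 dye; IC50 came from Hill fits.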
# [5] = qHTS assay for small molecule agonists of the antioxidant response element (ARE) signaling pathway (AID 651741; active = well fitted activation curve with a large enough effect in the signal ratio; inconclusive = small, poorly fitted or top-dose-only effect, or effect the other way, or a change in a side signal; the % refers to the signal ratio; also: potency is read from the fitted curve at half-maximal effect); settings: HepG2 ARE-bla reporter, beta-lactamase FRET ratio, 16 h; activation: at 96 µM (top of the series)
# In short: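 ARE-bla HepG2 cells (beta-lactamase reporter under ARE control) were plated at 2,000 cells/well, preincubated 5 h at 37 C/5% CO2, then treated with DMSO-dissolved compounds for 16 h at 37 C; LiveBLAzer B/G FRET substrate added, fluorescence read after 2 h at room temperature.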
# [6] = qHTS for differential inhibitors of proliferation of Plasmodium falciparum line HB3 (AID 1886); settings: Potency: Plasmodium falciparum HB3 proliferation inhibition;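 also: parasites grown with compound for 72 h before SYBR Green readout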; also: potency is read from the fitted curve at half-maximal effect
# [7] = molecular target: Phospholipid hydroperoxide glutathione peroxidase GPX4 (Homo sapiens) (UniProt P36969); assay: Primary qHTS Assay for Inhibitors of Recombinant Selenoprotein Glutathione Peroxidase 4 (GPX4) (AID 1845192); settings: activity change, negative = inhibition: at 50 µM (top of the series) unless noted; also: nearly all actives have a fitted effect of over 65% in size; also: potency is read from the fitted curve at half-maximal effect
# In short: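 GR-coupled readout: 100 nM GR, 1 mM GSH, 0.5 mM NADPH; NADPH fluorescence (ex 340/em 450 nm) read at t=0 and after 15 min RT. GPX4 200 nM, preincubated 30 min with compound; substrate 0.5 mM CHP.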
# [8] = Primary qHTS for inhibitors of La Crosse Virus (LACV) - induced cell death in SH-SY5Y cells (AID 1508616); also: potency is read from the fitted curve at half-maximal effect;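 as to activity change: top concentration of the series differs between compounds; higher means more rescue of cells from virus-induced death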
# In short: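 Luminescent ATP readout (ATPLite 1step, 5 min room temperature) measured rescue from LACV-induced death after 6 days of infection at 0.01 MOI; normalized to infected DMSO wells and uninfected DMSO wells.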
# [9] = molecular target: Cytochrome P450 1A2 (Homo sapiens) (UniProt P05177); assay: p450-cyp1a2 (AID 410; calls by dose curve)
# In short: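 Human CYP1A2 (20nM) demethylated Luciferin-ME at its Km (100uM) in 100mM KPO4. After 10 min compound preincubation, NADPH regeneration ran the reaction 60 min at room temperature. Luciferin was read by luminescence, normalized to 57 uM furafylline.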
# [10] = molecular target: Endonuclease 4 (Escherichia coli (strain K12)) (UniProt P0A6C1); assay: Counterscreen for APE1 Inhibitors: qHTS Validation Assay for Inhibitors of Endonuclease IV (AID 1708); also: potency is read from the fitted curve at half-maximal effect
# In short: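 2 nM enzyme was preincubated with compounds for 15 min at room temperature in 50 mM Tris-HCl pH 7.5, 50 mM NaCl, 2 mM MgCl2, 1 mM DTT, 0.01% Tween-20. 50 nM THF-abasic TAMRA/BHQ-2 duplex substrate started the reaction.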
# [11] = Stat Signaling Pathway (AID 446; active = well fitted curve in either direction with a large enough effect, not every such curve was filed as active; inconclusive = small, poorly fitted or top-dose-only effect, or another doubt;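 also: ME-180 cervical cancer cells given 40 pM IL-6 alongside compound; SIE-controlled beta-lactamase reporter measured as 460/530 nm FRET emission ratio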); settings: ME-180 SIE beta-lactamase reporter, IL-6 stimulated, 5 h
# In short: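 ME-180 SIE-bla cells; overnight plating; cpd + IL-6 40 pM, 5 h, 37 C; LiveBLAzer 2.5 h RT; 460/530 nm emission ratio. Normalized to 300 pM IL-6 and 125 nM JAK inhibitor controls.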
# [12] = qHTS Assay for Lipid Storage Modulators (AID 1519; calls by dose curve); settings: Drosophila S3 cells, BODIPY lipid droplet/cell ratio, laser cytometry, cells loaded with oleic acid; activity change, negative = inhibition: at 57.5 µM (top of the series) unless noted
# In short: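 Cells seeded at 5,000 per well were treated with compounds over a concentration series and loaded with oleic acid (400 uM, as added). Lipid droplet fluorescence (488 nm excitation, 500-530 nm channel) was read by laser-scanning cytometry and normalized to 20 uM Triacsin C.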
# [13] = qHTS for differential inhibitors of proliferation of Plasmodium falciparum line 7G8 (AID 1815);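 also: parasite growth measured after three days of incubation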; also: potency is read from the fitted curve at half-maximal effect
# [14] = qHTS for differential inhibitors of proliferation of Plasmodium falciparum line W2 (AID 1883); settings: Potency: Plasmodium falciparum W2 proliferation inhibition;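 also: parasites grown with compound for 72 h before lysis and staining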; also: potency is read from the fitted curve at half-maximal effect
# [15] = test system: Zika virus NS2B-NS3 protease (unlinked complex); assay: Primary screen GU Rhodamine qHTS for Zika virus inhibitors: Unlinked NS2B-NS3 protease assay (AID 1347159); settings: Recombinant ZIKV NS2B-NS3 protease, Rhodamine110 substrate fluorescence; activity change, negative = inhibition: at 107 µM (top of the series); also: nearly all actives have a fitted effect of over 60% in size; also: potency is read from the fitted curve at half-maximal effect
# In short: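 Noncovalent NS2B hydrophilic domain–NS3 protease domain complex (25 nM) preincubated 15 min at room temperature with compounds (up to 114 microM) in 10 mM Tris-HCl pH 8.0, 0.01% Tween 20; 1.5 microM Rhodamine110 substrate added, fluorescence change over 15 min fitted to Hill equation.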
# [16] = Cytometry Cell-Based qHTS for Inhibitors of the mTORC1 Signaling Pathway in MEF cells (AID 2668);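 also: Tsc2-/- p53-/- mouse embryonic fibroblasts stably re-expressing wild-type Tsc2; percent cells positive for phospho-rpS6 Ser235/236 relative to propidium iodide stain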
# In short: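 Phospho-rpS6 (Ser235/236) immunofluorescence over PI signal, scored as % positive cells using thresholds from 7.5 nM rapamycin and DMSO wells, after 24 h compound exposure of WT-Tsc2-rescued Tsc2-/-, p53-/- MEFs. PI cell count recorded for viability.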
# JCK = assay: qHTS profiling for inhibitors of Plasmodium falciparum proliferation (AID 504749); also: nearly all actives have a fitted effect of over 60% in size; settings: P. falciparum in erythrocytes, SYBR Green DNA, 72 h; series mostly up to 28.7 µM
# In short: as §1
structure (smiles),measurement,setting,value
CC1(C)[C@@H]2CC[C@@]1(C)C(=O)C2,activation,[1],inconclusive: 3.74%
same,Potency,[2],inactive
same,Potency,CP262,inactive
O=C(CN1CCNCC1)NC1CCCCC1,Potency,PC49,inactive
Cc1cccc(C(=O)O)c1O,Potency,CP262,inactive
O=C1CC2(CCCC2)CC(=O)N1CCCCN1CCN(c2ncccn2)CC1,Potency,[3],inactive
CC1(COc2ccc(CC3SC(=O)NC3=O)cc2)CCCCC1 (stereo not drawn),"activity, negative = inhibition",[4],inconclusive: -95.8%
same,Potency,[5],"inconclusive: 77 µM [activator, single point]"
CC1(C)CO[C@@H](CC(=O)O)CN1,Potency,[2],inactive
OCC(O)CS (stereo not drawn),Potency,PC49,inactive
CNC1(C)C2CCC(C2)C1(C)C (stereo not drawn),Potency,[6],inactive
CCCCC1=NC2(CCCC2)C(=O)N1Cc1ccc(-c2ccccc2-c2nn[nH]n2)cc1,Potency,[7],inactive
CN(C)CCCOC1(Cc2ccccc2)CCCCCC1,Potency,[8],inactive
CC(C)(C)NCC(O)COc1cccc2c1CCC(=O)N2 (stereo not drawn),Potency,[8],inactive
CCN(CC)CCNC(=O)c1cc(S(C)(=O)=O)ccc1OC,Potency,[9],inactive
same,Potency,[10],"inconclusive: 8.91 µM [inhibitor, full curve, poor fit]"
NC1CCN(c2cccc(Cl)n2)CC1,"activity, negative = inhibition",[11]; at 38 µM (top of the series),inactive: -14.3%
same,Potency,[12],inactive
same,Potency,[13],inactive
same,Potency,[8],"inconclusive: 0.891 µM [inhibitor, single point]"
CC(=O)Nc1nnc(S(N)(=O)=O)s1,"activity, negative = inhibition",[11]; at 17.2 µM (top of the series),inactive: -2.79% and inactive: 14.4%
same,"activity, negative = inhibition",[11]; at 38 µM (top of the series),inactive: 1.04%
same,Potency,[3],inactive
same,Potency,[13],inactive
same,Potency,[14],inactive
same,Potency,[4],inactive
same,Potency,[5],inactive
CCN(CC)CC1CCCCN1CC(=O)N1c2ccccc2C(=O)Nc2cccnc21 (stereo not drawn),Potency,[2],inactive
C[N+](C)(C)CC[N+]1(C)Cc2c(Cl)c(Cl)c(Cl)c(Cl)c2C1,Potency,[9],inactive
O=S(=O)(O)NC1CCCCC1,Potency,[4],inactive
same,activation,[5],inconclusive: 9.73%
CCOC(=O)n1ccn(C)c1=S,Potency,PC49,inactive
CN1[C@@H]2CC[C@H]1CC(OC(=O)c1c[nH]c3ccccc13)C2 (stereo partly drawn),Potency,[9],inactive
same,Potency,[15],inactive
CCC(C)(Oc1ccc(C2(c3ccc(OC(C)(CC)C(=O)O)cc3)CCCCC2)cc1)C(=O)O (stereo not drawn),Potency,[15],active: 31.6 µM
same,Potency,[7],"inconclusive: 22.7 µM [inhibitor, single point]"
C[N+](C)(CCOc1ccccc1)Cc1cccs1,Potency,[2],inactive
Nc1c(NC/C=C\COc2cc(CN3CCCCC3)ccn2)c(=O)c1=O,Potency,[15],inactive
same,Potency,[7],"inconclusive: 14.1 µM [inhibitor, partial curve, poor fit]"
FC(F)(F)c1ccccc1-n1ccnc1,Potency,[3],inactive
same,"activity change, negative = inhibition",[12],inconclusive: -2.23%
same,Potency,[10],inactive
same,Potency,[14],"inconclusive: 1.41 µM [inhibitor, full curve, poor fit]"
same,Potency,[16],inactive
Nc1c2c(nc3ccccc13)CCCC2O (stereo not drawn),Potency,[10],"inconclusive: 6.31 µM [inhibitor, partial curve, poor fit]"
same,Potency,[14],"inconclusive: 17.8 µM [inhibitor, partial curve]"
same,Potency,[16],inactive
NCC1CCC(C(=O)Oc2ccc(CCC(=O)O)cc2)CC1 (stereo not drawn),Potency,JCK,inactive
O=C(O)C(Cc1cc(I)c(O)c(I)c1)c1ccccc1 (stereo not drawn),Potency,[8],inactive
COc1cc2ncnc(Nc3cccc(Cl)c3F)c2cc1OC(=O)N1CCN(C)C[C@H]1C,Potency,[15],"inconclusive: 100 µM [inhibitor, single point]"
COCCCC/C(=N\OCCN)c1ccc(C(F)(F)F)cc1,Potency,[13],active: 10 µM
same,Potency,[6],"inconclusive: 8.91 µM [inhibitor, partial curve]"
same,Potency,JCK,inactive

# Part of the list above, with bars between the fields:
structure (smiles) | measurement | setting | value
FC(F)(F)c1ccccc1-n1ccnc1 | Potency | [3] | inactive
same | activity change, negative = inhibition | [12] | inconclusive: -2.23%
